PubChem BioAssay AID1508588, Peter MacCallum Cancer Centre – 2020
Here is an unselected part of about 18,000 deposited reagents. Over the whole deposit, 790 (4.4%) are marked active. 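Calls rest on a combination of fold-change classes in drug and vehicle arms, not all shown here.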 Reagent sequences are not shown.

Screen: 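Genome-wide search for knock-downs that heighten vemurafenib action in melanoma cells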 (primary screen)
System: human WM266.4 melanoma cells (BRAF V600 mutant)
Knock-down reagent: siRNA pool against human genes, 40 nM
Timing: 96 h from transfection to read-out
Conditions: vemurafenib 300 nM (about IC25), added 48 h after transfection, for 48 h; comparison arm got DMSO vehicle only
Read-out: 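Ratios to non-targeting siRNA for cell gain, counted as DAPI nuclei after minus before drug and averaged over two replicates, and for absorbance-read medium lactate per cell; both binned into fold-change classes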
Scale: cell gain with vemurafenib: higher = more cell gain than with non-targeting siRNA; lactate per cell with vemurafenib: higher = more lactate made per cell
Hit rule: 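a knock-down counts as enhancing when its fold-change classes with vehicle and with vemurafenib, taken together, show a stronger drug effect on cell gain or lactate per cell; exact class pairs not stated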
Calls: active = enhances vemurafenib effect; inactive = no enhancement seen

| Gene | cell gain with vemurafenib | lactate per cell with vemurafenib | call |
| --- | --- | --- | --- |
| KRTAP20-1 (keratin associated protein 20-1) | 0.73 | 0.71 | inactive |
| PGR (progesterone receptor) | 0.43 | 1.23 | inactive |
| LINC00471 (long independently transcribed non-coding RNA 471) | 0.46 | 1.98 | inactive |
| NGLY1 (N-glycanase 1) | 0.72 | 0.42 | inactive |
| FAM53A (family with sequence similarity 53 member A) | 0.56 | 0.99 | inactive |
| IGF1R (insulin like growth factor 1 receptor) | 0.66 | 0.94 | inactive |
| HHEX (hematopoietically expressed homeobox) | 0.35 | 1.94 | inactive |
| NR5A1 (nuclear receptor subfamily 5 group A member 1) | 0.48 | 0.62 | inactive |
| TMCO4 (transmembrane and coiled-coil domains 4) | 0.65 | 0.88 | inactive |
| EXOC7 (exocyst complex component 7) | 0.34 | 1.11 | inactive |
| ING1 (inhibitor of growth family member 1) | 0.84 | 0.68 | inactive |
| SLC25A38 | 0.94 | 1.11 | inactive |
| MTO1 (mitochondrial tRNA translation optimization 1) | 0.52 | 0.4 | active |
| KIAA0930 | 0.74 | 0.84 | inactive |
| FAM111B (FAM111 trypsin like peptidase B) | 1 | 0.48 | active |
| AKAP10 (A-kinase anchoring protein 10) | 0.34 | 1.52 | inactive |
| ABCD1 (ATP binding cassette subfamily D member 1) | 0.58 | 0.78 | inactive |
| ZBTB12 (zinc finger and BTB domain containing 12) | 1.49 | 0.68 | inactive |
| SACS (sacsin molecular chaperone) | 0.28 | 1.27 | inactive |
| PSKH2 (protein serine kinase H2) | 0.57 | 0.32 | inactive |
| LASP1 (LIM and SH3 protein 1) | 0.6 | 1.04 | inactive |
| PLLP (plasmolipin) | 0.47 | 0.4 | inactive |
| CCR10 (C-C motif chemokine receptor 10) | 0.49 | 0.69 | inactive |
| HHIPL1 (HHIP like 1) | 0.17 | 1.52 | inactive |
| CRMP1 (collapsin response mediator protein 1) | 1.11 | 1.09 | inactive |
| ANPEP (alanyl aminopeptidase, membrane) | 0.57 | 0.78 | inactive |
| ZFAND2B (zinc finger AN1-type containing 2B) | 0.15 | 2.5 | inactive |
| TJAP1 (tight junction associated protein 1) | 0.37 | 0.61 | inactive |
| NCOA7 (nuclear receptor coactivator 7) | 0.22 | 1.78 | inactive |
| HTR1E (5-hydroxytryptamine receptor 1E) | 0.2 | 1.65 | inactive |
| PRAF2 (PRA1 domain family member 2) | 0.52 | 0.52 | inactive |
| FBLN5 (fibulin 5) | 0.48 | 1.38 | inactive |
| TNFSF14 (TNF superfamily member 14) | 1.29 | 0.88 | inactive |
| ENHO (energy homeostasis associated) | 0.59 | 1.02 | inactive |
| PLEKHG2 (pleckstrin homology and RhoGEF domain containing G2) | 0.85 | 0.9 | inactive |
| MPC1 | 0.62 | 1.32 | inactive |
| FGFR3 (fibroblast growth factor receptor 3) | 0.25 | 0.97 | inactive |
| HOXC8 (homeobox C8) | 0.82 | 0.38 | inactive |
| C22orf23 (chromosome 22 open reading frame 23) | 0.02 | 0.71 | inactive |
| POU2F2 (POU class 2 homeobox 2) | 0.71 | 0.62 | inactive |
| HSCB (HscB mitochondrial iron-sulfur cluster cochaperone) | 0.8 | 0.55 | inactive |

No new results follow: 8 of the entries above.
| Gene | cell gain with vemurafenib | lactate per cell with vemurafenib | call |
| --- | --- | --- | --- |
| EXOC7 (exocyst complex component 7) | 0.34 | 1.11 | inactive |
| ING1 (inhibitor of growth family member 1) | 0.84 | 0.68 | inactive |
| SLC25A38 | 0.94 | 1.11 | inactive |
| MTO1 (mitochondrial tRNA translation optimization 1) | 0.52 | 0.4 | active |
| KIAA0930 | 0.74 | 0.84 | inactive |
| FAM111B (FAM111 trypsin like peptidase B) | 1 | 0.48 | active |
| AKAP10 (A-kinase anchoring protein 10) | 0.34 | 1.52 | inactive |
| ABCD1 (ATP binding cassette subfamily D member 1) | 0.58 | 0.78 | inactive |

The list goes on:
| Gene | cell gain with vemurafenib | lactate per cell with vemurafenib | call |
| --- | --- | --- | --- |
| CHCHD10 (coiled-coil-helix-coiled-coil-helix domain containing 10) | 1.05 | 0.53 | active |
| DIP2B (DIP2 acetate--CoA ligase B (putative)) | 0.16 | 1.86 | inactive |
| SEC62 (SEC62 preprotein translocation factor) | 0.66 | 0.6 | inactive |
| NRGN (neurogranin) | 0.83 | 1.32 | inactive |
| TM9SF2 (transmembrane 9 superfamily member 2) | 1.12 | 0.39 | active |
| FCGR1A (Fc gamma receptor Ia) | 0.36 | 0.2 | inactive |
| DGCR6L (DiGeorge syndrome critical region gene 6 like) | -0.04 | 1.1 | inactive |
| HACD4 (3-hydroxyacyl-CoA dehydratase 4) | 0.96 | 0.46 | inactive |
| PPHLN1 (periphilin 1) | 0.78 | 0.17 | active |
| MYO9B (myosin IXB) | 0.13 | 0.97 | inactive |
| MMP14 (matrix metallopeptidase 14) | 0.45 | 1 | inactive |
| STUB1 (STIP1 homology and U-box containing protein 1) | 1.1 | 0.68 | inactive |
| LIG4 (DNA ligase 4) | 0.61 | 0.61 | inactive |
| TCF20 (transcription factor 20) | 1.3 | 0.55 | inactive |
| APP (amyloid beta precursor protein) | 1.19 | 1.22 | inactive |
| TMEM97 (transmembrane protein 97) | 0.59 | 1.15 | inactive |
| ZG16B (zymogen granule protein 16B) | 0.37 | 2.03 | inactive |
| AVPR1B (arginine vasopressin receptor 1B) | 0.45 | 1.12 | inactive |
| C1orf87 (chromosome 1 open reading frame 87) | 0.79 | 0.35 | inactive |
| UNC5A (unc-5 netrin receptor A) | 0.96 | 0.93 | inactive |
| SFTA2 (surfactant associated 2) | 0.61 | 0.68 | inactive |
| HM13 (histocompatibility minor 13) | 0.01 | 0.89 | inactive |
| CCDC148 (coiled-coil domain containing 148) | 0.44 | 0.6 | inactive |
| PHC2 (polyhomeotic homolog 2) | 0.53 | 2 | inactive |
| NPC2 (NPC intracellular cholesterol transporter 2) | 0.77 | 0.82 | inactive |
| ZNF229 (zinc finger protein 229) | 0.09 | 0.32 | inactive |
| FERMT2 (FERM domain containing kindlin 2) | 0.62 | 0.76 | inactive |
| ASCC3 (activating signal cointegrator 1 complex subunit 3) | 0.3 | 1.39 | inactive |
| WFS1 (wolframin ER transmembrane glycoprotein) | 0.65 | 0.93 | inactive |
| RPS3 (ribosomal protein S3) | 0.05 | 2.43 | inactive |
| PFN3 (profilin 3) | 0.4 | 1.43 | inactive |
| OGDH (oxoglutarate dehydrogenase) | 0.41 | 2.08 | inactive |
| RNF123 (ring finger protein 123) | 0.98 | 0.82 | inactive |
| CCDC146 (coiled-coil domain containing 146) | 0.79 | 0.97 | inactive |
| SREBF1 (sterol regulatory element binding transcription factor 1) | 0.74 | 0.62 | inactive |
| DNAJB4 (DnaJ heat shock protein family (Hsp40) member B4) | 0.67 | 0.74 | inactive |
| AOC2 (amine oxidase copper containing 2) | 0.88 | 1.16 | inactive |
| MAD2L2 (mitotic arrest deficient 2 like 2) | 0.33 | 0.92 | inactive |
| KRCC1 (lysine rich coiled-coil 1) | 0.84 | 0.58 | inactive |
| KIRREL3 (kirre like nephrin family adhesion molecule 3) | 0.27 | 0.49 | active |
| PRX (periaxin) | 0.57 | 0.4 | inactive |
| PRUNE2 (prune homolog 2 with BCH domain) | 0.11 | 0.63 | inactive |
| GAS2L1 (growth arrest specific 2 like 1) | 0.71 | 0.97 | inactive |
